Test results taken from article PMC5431813.
Results are given in words; binding and its absence hold for the method and conditions named. In cells and extracts the contact can be indirect. Some results given as binding are weak or reduced against the parent protein; the word gives no strength.

The chains behind the UniProt entries cited, without tags or fusion partners. Where a name states a change or a piece, a line headed by the entry shows the natural chain unless it says otherwise.
UniProt Q8CGX0: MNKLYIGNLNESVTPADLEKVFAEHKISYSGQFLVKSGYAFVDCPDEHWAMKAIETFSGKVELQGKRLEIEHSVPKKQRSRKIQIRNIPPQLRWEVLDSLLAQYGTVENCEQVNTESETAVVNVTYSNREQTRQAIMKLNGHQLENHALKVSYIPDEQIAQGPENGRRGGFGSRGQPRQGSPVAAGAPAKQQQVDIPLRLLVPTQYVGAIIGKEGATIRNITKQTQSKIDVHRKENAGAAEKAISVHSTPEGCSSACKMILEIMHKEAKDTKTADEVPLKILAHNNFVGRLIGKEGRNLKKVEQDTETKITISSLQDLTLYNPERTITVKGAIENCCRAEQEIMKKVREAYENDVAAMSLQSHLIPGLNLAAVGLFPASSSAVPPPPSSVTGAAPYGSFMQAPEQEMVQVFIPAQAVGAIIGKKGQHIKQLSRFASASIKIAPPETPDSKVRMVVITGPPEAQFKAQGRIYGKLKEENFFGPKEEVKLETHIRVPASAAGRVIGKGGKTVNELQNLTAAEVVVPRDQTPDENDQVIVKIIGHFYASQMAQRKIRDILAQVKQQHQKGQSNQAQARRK
UniProt Q12840: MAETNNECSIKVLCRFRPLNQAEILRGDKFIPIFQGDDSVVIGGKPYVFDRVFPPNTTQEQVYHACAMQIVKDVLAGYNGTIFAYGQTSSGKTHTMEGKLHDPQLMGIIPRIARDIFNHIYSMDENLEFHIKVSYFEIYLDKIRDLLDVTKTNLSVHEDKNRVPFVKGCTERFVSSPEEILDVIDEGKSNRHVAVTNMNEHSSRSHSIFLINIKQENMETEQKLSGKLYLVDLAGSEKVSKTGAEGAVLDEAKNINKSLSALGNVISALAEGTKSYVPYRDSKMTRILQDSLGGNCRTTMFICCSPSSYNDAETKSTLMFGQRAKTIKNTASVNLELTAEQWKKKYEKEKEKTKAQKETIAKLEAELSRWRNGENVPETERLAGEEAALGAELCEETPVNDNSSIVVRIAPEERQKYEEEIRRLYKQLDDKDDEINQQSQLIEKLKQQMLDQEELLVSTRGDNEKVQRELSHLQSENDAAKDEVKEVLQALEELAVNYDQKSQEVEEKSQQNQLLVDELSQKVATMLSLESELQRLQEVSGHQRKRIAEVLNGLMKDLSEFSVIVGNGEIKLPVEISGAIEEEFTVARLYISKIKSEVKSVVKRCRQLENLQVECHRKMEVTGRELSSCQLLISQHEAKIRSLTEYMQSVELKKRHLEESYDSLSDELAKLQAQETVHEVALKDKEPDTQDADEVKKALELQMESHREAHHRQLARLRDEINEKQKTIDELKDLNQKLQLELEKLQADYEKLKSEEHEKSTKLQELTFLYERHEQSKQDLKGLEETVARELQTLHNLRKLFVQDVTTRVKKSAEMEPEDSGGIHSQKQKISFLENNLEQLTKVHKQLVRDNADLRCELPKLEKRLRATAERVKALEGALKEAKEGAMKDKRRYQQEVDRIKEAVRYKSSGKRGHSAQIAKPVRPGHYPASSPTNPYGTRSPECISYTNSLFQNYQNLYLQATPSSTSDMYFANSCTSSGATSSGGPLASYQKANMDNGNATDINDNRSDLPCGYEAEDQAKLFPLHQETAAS

Legend:
[1] = target: HA-BIO-ZBP1 (Bio-Thrombin-HA-ZBP1, wildtype) (rat) (UniProt Q8CGX0); experiment: co-IP; Neuro2a cells co-transfected with Kif5a-GFP and HA/Bio-tagged ZBP1 or its S181A mutant, 48 h; lysis in 50 mM Tris pH 7.5, 150 mM NaCl, 0.1% Triton X-100, 2 mM EDTA, 2 mM MgCl2, 2 mM ATP; overnight with anti-HA magnetic beads; four washes in lysis buffer without ATP; Western blot
[2] = target: HA-BIO-ZBP1_(S181A) (Bio-Thrombin-HA-ZBP1 S181A) (rat) (UniProt Q8CGX0); experiment: as above

KIF5A-GFP (from UniProt Q12840 1-1032)
binding [1]: binds | binding [2]: binds
